Molecules are shown by their SMILES. Some entries of the source have several records that differ or are many. The list is limited to them. There may be further records. The records of an entry differ, and nothing given here explains why; some may be repeats, others may stem from another dose, organism or construct than stated.

The assay concerns HCT116p53+/+ cell. In words: MTT cell proliferation at single concentration. In kind it is cell-based, human.

Take `CCOc1ccc(NC(=O)CCl)cc1S(=O)(=O)N1CCCCC1` [C1-30]: the “% Inhibition of HCT116p53+/+ cell proliferation at 10 µM” value (“% Inhibition” below) is 45% and 20.7%.
Regarding `CC(C)c1ccc(C(NC(=O)CCl)C(C)C)cc1` (stereo not drawn) [C3-6], the “% Inhibition” value was 13.6% and 34.7%.
With `O=C(CCl)N1CCN(S(=O)(=O)c2ccc(F)c(F)c2)CC1` [C5-14], the “% Inhibition” value was 28.2% and 11.4%.

For the origin of these results see paper PMC5059489, “Mechanistic evaluation and transcriptional signature of a glutathione S-transferase omega 1 inhibitor” (Nature Communications, 2016).
